Experimental data: patent US11911361B2, “Stable cannabinoid formulations” (priority 2014, dated 2024)
At least one compound was matched to its structure with a doubt left.

Tested on: U251 cells
Experiment: Orthotopic mouse model of glioblastoma multiforme, U251 cells
Type: in vivo, female athymic nu/nu mice
Settings: vehicle outlier included
Protocol: All mice were injected intraperitoneally.
Survival between groups was compared using a Kaplan-Meier analysis and long-rank Mantel-Cox test or The Gehan-Breslow-Wilcoxon test. P values <0.05 defined statistical significance.

## Cn1nnc2c(C(N)=O)ncn2c1=O [temozolomide, reference compound]
  survival (in words): did not increase survival
